No constants are given. Whether binding was seen depends on the method and setting. In cells and extracts the contact can be indirect. Binding calls can cover weak binding; strength is not graded here. Tags and fused reporters may be left off the sequences shown.

The target in the experiment is GFP-SteD (Salmonella Typhimurium). Kind of experiment: co-IP; HEK293ET cells co-transfected, lysed 24 h later in 150 mM NaCl, 50 mM Tris pH 7.4, 5 mM EDTA, 0.5% Triton X100, 5% glycerol; GFP-tagged protein precipitated with GFP-trap beads 2 h at 4°C; immunoblot with anti-GFP and anti-FLAG. A general note: Immunoblotting shows a protein as a band on a membrane.

B1: FLAG-TMEM127 (protein, UniProt O75204 1-238)
chain: MYAPGGAGLPGGRRRRSPGGSALPKQPERSLASALPGALSITALCTALAEPAWLHIHGGTCSRQELGVSDVLGYVHPDLLKDFCMNPQTVLLLRVIAAFCFLGILCSLSAFLLDVFGPKHPALKITRRYAFAHILTVLQCATVIGFSYWASELILAQQQQHKKYHGSQVYVTFAVSFYLVAGAGGASILATAANLLRHYPTEEEEQALELLSEMEENEPYPAEYEVINQFQPPPAYTP
On to B1, for which the binding entry was “binds”.

Values taken from PMC7342019.
